According to patent publication US9612237B2, “Ritalinic acid immunoassay” (Randox Laboratories Limited, priority 2013, dated 2017):
At least one compound was matched to its structure with a doubt left.

Tested on: antisera generated in response to immunogen of Example 11
Experiment: Competitive chemiluminescent biochip immunoassay, antisera raised against immunogen of Example 11, conjugate of Example 12
Format: binding, sheep
Conditions: value is the concentration at which no cross-reactivity was exhibited

## O=C(O)CNC(=O)c1ccccc1O [salicyluric acid]
  Concentration exhibiting no cross-reactivity: 250 µg/mL
